{"source": "PubChem BioAssay AID504467", "about": "(National Center for Advancing Translational Sciences (NCATS), 2011)", "note": "In all, about 330,000 compounds went through this assay and about 7,700 (2.3%) were called active. The shares of active, inactive and inconclusive entries below differ from those in the screen. Calls come from the whole dose curve; as a rule, active = well fitted inhibition curve with a large enough effect; inconclusive = small, poorly fitted or top-dose-only effect, or effect the other way; inactive = flat fitted curve, though single readings scatter. A potency beside an inconclusive call is a rough fit, not a confirmed value. Potency is the fitted concentration of half-maximal effect."}
{"experiment": "qHTS screen for small molecules that inhibit ELG1-dependent DNA repair in human embryonic kidney (HEK293T) cells expressing luciferase-tagged ELG1; note: nearly all actives have a fitted effect of over 55% in size", "settings": "HEK293T ELG1-luciferase reporter, luminescence, 16 h, DNA damage induced by 5-fluorouridine; series mostly up to 46.1 µM", "method_in_brief": "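HEK293T cells expressing luciferase-tagged ELG1 (2,000/well) received 5-Fluorouridine plus compound or DMSO for 16 hr at 37 °C. Luciferase was read by ONE-Glo luminescence after 30 min at room temperature.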"}
{"smiles": "CC(=O)c1c(C)n(-c2cccc(Cl)c2)c2ccc(O)cc12", "Potency": "inconclusive: 16.4 µM [inhibitor, partial curve]"}
{"smiles": "Clc1cccc(Cl)c1C1=NOC(c2nnc(-c3ccccc3)o2)C1", "note": "(stereo not given)", "Potency": "inconclusive: 20.6 µM [activator, partial curve]"}
{"smiles": "COc1ccc(NC(=O)c2cc(-c3ccc(C)cc3)on2)cc1OC", "Potency": "inactive"}
{"smiles": "COc1ccc(S(=O)(=O)N(C)C)cc1NC(=O)c1ccc2c(c1)OCCO2", "Potency": "inactive"}
{"smiles": "O=C(NCc1ccc(Cl)cc1)c1cccnc1", "Potency": "inconclusive: 14.6 µM [inhibitor, partial curve, poor fit]"}
{"smiles": "Cc1c(S(=O)(=O)N2CCC(C)CC2)c(=O)n(C)c(=O)n1C", "Potency": "inconclusive: 20.6 µM [activator, single point]"}
{"smiles": "CCOc1cc2c3c(c1)C1(Nc4ccccc4S1)C(=O)N3C(C)(C)CC2C", "note": "(stereo not given)", "Potency": "inconclusive: 32.6 µM [inhibitor, single point]"}
{"smiles": "CC(=O)c1ccc(OCc2cc(C(=O)N(C)Cc3ccon3)no2)cc1", "Potency": "inconclusive: 18.3 µM [activator, partial curve, poor fit]"}
{"smiles": "CC(=O)Nc1ccc(NC(=O)C23CC4CC(C2)CC(n2cnc(Br)n2)(C4)C3)cc1", "Potency": "inactive"}
{"smiles": "COc1ccc2nc(Nc3ccc4c(c3)OCO4)sc2c1", "Potency": "inconclusive: 3.26 µM [activator, partial curve]"}
{"smiles": "O=C(CN(C(=O)CCC(=O)Nc1nccs1)C1CCCC1)NCc1ccc2c(c1)OCO2", "Potency": "inactive"}
{"smiles": "COc1ccc(CC(=O)O/N=C(\\N)c2ccc(C)cc2)cc1", "Potency": "inconclusive: 20.6 µM [activator, partial curve]"}
{"smiles": "COc1cccc(Nc2ccc(C(=O)O)cc2N)c1", "Potency": "inconclusive: 14.6 µM [activator, partial curve]"}
{"smiles": "Fc1ccc(-c2nnn3c2nc(NCc2ccccc2)c2ccccc23)cc1", "Potency": "inactive"}
{"smiles": "CC(C)OCCCNC(=O)c1ccc(CN2CCc3ccccc3C2)cc1", "Potency": "inconclusive: 16.4 µM [inhibitor, partial curve, poor fit]"}
{"smiles": "Cc1ccccc1N(CC(=O)Nc1ccccc1C(=O)O)S(C)(=O)=O", "Potency": "inconclusive: 29.1 µM [activator, single point]"}
{"smiles": "NC(=O)C1CCC(NC(=O)OCc2ccccc2)CC1", "note": "(stereo not given)", "Potency": "inconclusive: 20.6 µM [activator, partial curve, poor fit]"}
{"smiles": "O=C(Nc1ccccc1N1CCOCC1)C1CCN(S(=O)(=O)c2cccc(C(F)(F)F)c2)CC1", "Potency": "inconclusive: 25.9 µM [inhibitor, partial curve, poor fit]"}
{"smiles": "O=C(/C=C\\c1ccco1)Nc1ccc(N2CCN(C(=O)c3ccccc3)CC2)cc1", "Potency": "inconclusive: 29.1 µM [inhibitor, single point]"}
{"smiles": "CCn1nc(C)cc1C(=O)NC1CCCc2c1cnn2-c1cc(F)cc(F)c1", "note": "(stereo not given)", "Potency": "inactive"}
{"smiles": "COc1ccc(OC)c(NC(=O)c2cc3c(Cl)nc4ccccc4c3s2)c1", "Potency": "inactive"}
{"smiles": "CCCCCCc1cc2cc(-c3nnc(-c4ccccc4OC)o3)c(=O)oc2cc1O", "Potency": "active: 7.31 µM"}
{"smiles": "Cc1ccc(OCC(=O)Nc2ccc(S(=O)(=O)Nc3ccccn3)cc2)c(C)c1", "Potency": "inactive"}
{"smiles": "O=C(Nc1cccc(-c2nc3ccccc3o2)c1)c1cccnc1", "Potency": "inconclusive: 29.1 µM [inhibitor, single point]"}
{"smiles": "COC(=O)Cc1ccc(OC(=O)C2CCN(S(=O)(=O)c3ccc(OC)c(OC)c3)CC2)cc1", "Potency": "inactive"}
{"smiles": "O=C(c1ccc(-c2cccc(C(F)(F)F)c2)o1)N1CCOCC1", "Potency": "inconclusive: 16.4 µM [activator, partial curve]"}
{"smiles": "CN(C(=S)Nc1ccc(Oc2ccccc2)cc1)c1ccc(O)cc1", "Potency": "inactive"}
{"smiles": "Nc1nc(-c2cccc(NS(=O)(=O)c3ccccc3)c2)cs1", "Potency": "inconclusive: 3.26 µM [inhibitor, partial curve, poor fit]"}
{"smiles": "Cc1cc(NC(=O)CSc2nnnn2-c2ccccc2C)no1", "Potency": "inconclusive: 18.3 µM [activator, single point]"}
{"smiles": "Clc1ccc(CN2CCN(c3ncnc4scc(-c5cccs5)c34)CC2)cc1", "Potency": "active: 23.1 µM"}
{"smiles": "COC(=O)Cc1ccc(NC(=S)Nc2cccc(C)n2)cc1", "Potency": "inconclusive: 29.1 µM [inhibitor, single point]"}
{"smiles": "COc1ccc2[nH]c(=O)c(CN(Cc3nnnn3Cc3ccccc3)CC3CCCO3)cc2c1", "note": "(stereo not given)", "Potency": "inconclusive: 29.1 µM [inhibitor, single point]"}
{"smiles": "CSc1c(C#N)sc(=S)n1-c1ccc(C)cc1", "Potency": "inactive"}
{"smiles": "CCn1c(CNC(=O)c2cccc(C)c2)nnc1SCC(=O)NC1=NCCS1", "Potency": "inactive"}
{"smiles": "Cc1ccc(OCC(=O)Nc2ccc(NC(=O)c3ccccc3)c(C)c2)cc1", "Potency": "inconclusive: 14.6 µM [activator, partial curve]"}
{"smiles": "COc1ccc(-c2c(-c3ccccc3OC)oc3ccccc23)cn1", "Potency": "inconclusive: 25.9 µM [activator, single point]"}
{"smiles": "O=C(Nc1ccc2c(c1)OCO2)C1CCCCC1", "Potency": "inconclusive: 29.1 µM [activator, single point]"}
{"smiles": "COc1ccc(-c2nnc(CSc3nc4ccccc4c(=O)n3CC(C)C)o2)cc1OC", "Potency": "inconclusive: 29.1 µM [inhibitor, single point]"}
{"smiles": "O=C(N/N=C/c1cccc(OCc2ccccc2)c1)c1cccs1", "Potency": "inconclusive: 18.4 µM [activator, single point]"}
{"smiles": "CC(C)(C)NC(=O)c1ccccc1-c1nc2ccccc2s1", "Potency": "inactive"}
{"smiles": "O=C(NC1CCCc2ccccc21)c1ccccc1OC(F)F", "note": "(stereo not given)", "Potency": "inactive"}
{"smiles": "CC(C)NC(=O)N(C)C[C@@H]1Oc2ccc(NC(=O)CCN3CCOCC3)cc2CC(=O)N([C@@H](C)CO)C[C@@H]1C", "Potency": "inconclusive: 20.6 µM [activator, partial curve, poor fit]"}
{"smiles": "CCN(CC(=O)Nc1ccc2c(c1)OCCO2)C(=O)c1ccc([N+](=O)[O-])s1", "Potency": "inactive"}
{"smiles": "Cc1ccc(C)c(NS(=O)(=O)c2cc(C(=O)NCCC3=CCCCC3)ccc2C)c1", "Potency": "inconclusive: 29.1 µM [inhibitor, single point]"}
{"smiles": "O=C(CSc1nc2ccccc2s1)c1ccc(O)cc1O", "Potency": "inconclusive: 6.51 µM [activator, partial curve]"}
{"smiles": "Nc1ccc(-c2ccc(C(=O)O)s2)cn1", "Potency": "inconclusive: 29.1 µM [activator, single point]"}
{"smiles": "COc1ccc(C#Cc2ccc3c(c2)c(=O)c2ccccc2n3C)cc1", "Potency": "inactive"}
{"smiles": "Cc1ccc(OCc2cc(C(=O)N3CCCC(O)C3)no2)cn1", "note": "(stereo not given)", "Potency": "inconclusive: 20.6 µM [activator, partial curve, poor fit]"}
{"smiles": "CC(=O)NC(c1ccc(C)cc1)c1cc(Cl)c2cccnc2c1O", "note": "(stereo not given)", "Potency": "inconclusive: 4.11 µM [inhibitor, single point]"}
{"smiles": "CC(=O)c1ccc(NC(=S)NCCCn2ccnc2)cc1", "Potency": "inconclusive: 20.6 µM [activator, single point]"}
{"smiles": "O=C(NCCN1CCN(c2ccccc2F)CC1)c1cccn2c(=O)c3ccccc3nc12", "Potency": "inconclusive: 6.51 µM [inhibitor, partial curve]"}
{"smiles": "Cc1cc(NC(=O)c2ccc3[nH]c(C)c(C)c3c2)ccn1", "Potency": "inactive"}
{"smiles": "COc1ccc(/C=C2\\SC(N3CCCCC3)=NC2=O)cc1", "Potency": "inconclusive: 18.3 µM [activator, single point]"}
{"smiles": "O=[N+]([O-])c1cc(S(=O)(=O)N2CCCC2)ccc1N/N=C/c1cccnc1", "Potency": "inactive"}
{"smiles": "CCn1c(C)csc1=NC(=O)c1ccccc1", "Potency": "inconclusive: 13 µM [activator, partial curve]"}
{"smiles": "CC(C)n1nc(C(=O)Nc2nnc(SCc3c(Cl)cccc3Cl)s2)c2ccccc2c1=O", "Potency": "inactive"}
{"smiles": "O=c1c2oc3ccccc3c2ncn1Cc1ccc(Cl)cc1", "Potency": "inconclusive: 29.1 µM [activator, single point]"}
{"smiles": "Cc1ccc(NC(=O)c2cccc(S(=O)(=O)N3CCN(c4ccc(F)cc4)CC3)c2)nc1", "Potency": "inconclusive: 5.8 µM [inhibitor, full curve]"}
{"smiles": "COCCOC(=O)c1c(C)n(C)c2ccc(OC(=O)c3ccco3)cc12", "Potency": "inconclusive: 20.6 µM [activator, single point]"}
{"smiles": "COc1cc(/C=C/C(=O)OCc2csc(CC(=O)Nc3ccc(C)cc3)n2)ccc1OCC#N", "Potency": "inconclusive: 29.1 µM [inhibitor, single point]"}
{"smiles": "CC(C)c1ccc(NC2CCCN(C(=O)c3ccncc3)C2)cc1", "note": "(stereo not given)", "Potency": "inconclusive: 18.3 µM [inhibitor, partial curve, poor fit]"}
{"smiles": "COc1ccc(-c2nc3ccccc3c(=O)n2-c2c(C)n(C)n(-c3ccccc3)c2=O)cc1", "Potency": "inconclusive: 7.3 µM [activator, full curve, poor fit]"}
{"smiles": "Cc1ccc(/C=C/C(=O)Nc2cc(C)on2)cc1", "Potency": "inconclusive: 3.66 µM [activator, full curve]"}
{"smiles": "CN(C(=O)COC(=O)CN1C(=O)c2ccccc2C1=O)c1c(N)n(Cc2ccccc2)c(=O)[nH]c1=O", "Potency": "inactive"}
{"smiles": "Cc1nc2ccc(NC(=O)c3ccc([N+](=O)[O-])cc3[N+](=O)[O-])cc2s1", "Potency": "active: 20.6 µM"}
{"smiles": "Cc1ccc(C(=O)NCc2ccccc2CN2CCCC2)cc1S(=O)(=O)N1CCOCC1", "Potency": "inactive"}
{"smiles": "O=C(C1=NN[C@@H]2C(=O)N(Cc3ccccc3)C(=O)[C@H]12)c1ccc(F)cc1", "Potency": "inactive"}
{"smiles": "CC1CCC(NC(=O)CSc2nnnn2C)CC1", "note": "(stereo not given)", "Potency": "inconclusive: 23.1 µM [activator, partial curve, poor fit]"}
{"smiles": "CCOC(=O)CC1(NC(=O)C2CCC(=O)N(C3CC3)C2)CCCCC1", "note": "(stereo not given)", "Potency": "inconclusive: 20.6 µM [activator, single point]"}
{"smiles": "CCN(c1ccccc1)S(=O)(=O)c1cc(C(=O)Nc2ccccc2Cl)ccc1F", "Potency": "inactive"}
